The target of experiment [1] is Human γD-crystallin V75D (human). Nature of the experiment: SEC; native mixing: HγD and chaperone 1:1, each 1 mg/ml in SEC buffer, 37°C with gentle rotation for 14 to 28 days; filtered (0.2 µm), Superose 6 10/300 GL; fractions checked by Western blot (αB, HγD) or Trp fluorescence; both purified.
For experiment [2] the target is unchanged. Briefly: SEC; HγD unfolded overnight in 5 M GdnHCl at 37°C, diluted 10-fold into refolding buffer (100 mM sodium phosphate, 1 mM EDTA, 5 mM DTT, pH 7.0) with αB in 5-fold molar excess (0.1 mg/ml HγD, 0.5 mg/ml αB, 0.5 M GdnHCl), 37°C; the suppression reaction then run over Superose 6; both purified. (In general: In gel filtration, larger molecules generally elute earlier.)

The record followed here is PMC3360035.

Results are given in words; binding and its absence hold for the method and conditions named. For some assays here: A result given as binding can be weak or reduced; the word gives no strength.

B1: αB-crystallin, wild type (protein, UniProt P02511 1-175)
chain: MDIAIHHPWIRRPFFPFHSPSRLFDQFFGEHLLESDLFPTSTSLSPFYLRPPSFLRAPSWFDTGLSEMRLEKDRFSVNLDVKHFSPEELKVKVLGDVIEVHGKHEERQDEHGFISREFHRKYRIPADVDPLTITSSLSSDGVLTVNGPRKQVSGPERTIPITREEKPAVTAAPKK
In the case of B1, the binding entry in experiment [1] is listed as “no binding (tested: 1 mg/ml each)”; in experiment [2], “binds”.
